Compound in the assay: [O-][N+](C(C1=C(C(O)=C2)NC(C(C=C3)=CC=C3Cl)C4C1C=CC4)=C2Cl)=O
Nature of the assay: melting temperature shift (compound 7 minus DMSO); higher = compound stabilises the protein. To be noted: 10 µM. On the procedure: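 Thermal proteome profiling (TMT mass spectrometry) in intact DAOY medulloblastoma cells or DAOY lysates treated with 10 µM compound 7 or DMSO, heated at 10 temperatures from 40.5 to 73.8 °C for 3 min. Melting curves were fitted with the Bioconductor TPP package, and the melting point difference between compound and vehicle is reported per protein (single curve per condition).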

Amino acid sequences for entries named in this document (tags omitted). A change or cut given only in a name is not applied to a line headed by its entry.
UniProt Q3LXA3: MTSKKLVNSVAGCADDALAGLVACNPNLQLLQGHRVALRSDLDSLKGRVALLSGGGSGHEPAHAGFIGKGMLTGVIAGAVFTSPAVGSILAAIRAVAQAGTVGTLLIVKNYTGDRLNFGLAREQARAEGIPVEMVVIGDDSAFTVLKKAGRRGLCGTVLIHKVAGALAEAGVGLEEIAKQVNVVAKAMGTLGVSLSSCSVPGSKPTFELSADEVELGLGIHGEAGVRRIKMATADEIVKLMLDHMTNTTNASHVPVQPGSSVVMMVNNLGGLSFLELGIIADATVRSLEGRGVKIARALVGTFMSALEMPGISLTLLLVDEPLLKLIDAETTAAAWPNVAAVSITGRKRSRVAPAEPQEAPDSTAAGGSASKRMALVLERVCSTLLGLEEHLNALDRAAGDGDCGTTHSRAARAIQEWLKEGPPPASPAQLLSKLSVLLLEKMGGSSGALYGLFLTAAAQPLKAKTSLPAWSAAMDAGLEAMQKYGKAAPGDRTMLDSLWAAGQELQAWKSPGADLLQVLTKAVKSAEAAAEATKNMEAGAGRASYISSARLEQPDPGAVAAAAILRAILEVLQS
UniProt Q9HCL0: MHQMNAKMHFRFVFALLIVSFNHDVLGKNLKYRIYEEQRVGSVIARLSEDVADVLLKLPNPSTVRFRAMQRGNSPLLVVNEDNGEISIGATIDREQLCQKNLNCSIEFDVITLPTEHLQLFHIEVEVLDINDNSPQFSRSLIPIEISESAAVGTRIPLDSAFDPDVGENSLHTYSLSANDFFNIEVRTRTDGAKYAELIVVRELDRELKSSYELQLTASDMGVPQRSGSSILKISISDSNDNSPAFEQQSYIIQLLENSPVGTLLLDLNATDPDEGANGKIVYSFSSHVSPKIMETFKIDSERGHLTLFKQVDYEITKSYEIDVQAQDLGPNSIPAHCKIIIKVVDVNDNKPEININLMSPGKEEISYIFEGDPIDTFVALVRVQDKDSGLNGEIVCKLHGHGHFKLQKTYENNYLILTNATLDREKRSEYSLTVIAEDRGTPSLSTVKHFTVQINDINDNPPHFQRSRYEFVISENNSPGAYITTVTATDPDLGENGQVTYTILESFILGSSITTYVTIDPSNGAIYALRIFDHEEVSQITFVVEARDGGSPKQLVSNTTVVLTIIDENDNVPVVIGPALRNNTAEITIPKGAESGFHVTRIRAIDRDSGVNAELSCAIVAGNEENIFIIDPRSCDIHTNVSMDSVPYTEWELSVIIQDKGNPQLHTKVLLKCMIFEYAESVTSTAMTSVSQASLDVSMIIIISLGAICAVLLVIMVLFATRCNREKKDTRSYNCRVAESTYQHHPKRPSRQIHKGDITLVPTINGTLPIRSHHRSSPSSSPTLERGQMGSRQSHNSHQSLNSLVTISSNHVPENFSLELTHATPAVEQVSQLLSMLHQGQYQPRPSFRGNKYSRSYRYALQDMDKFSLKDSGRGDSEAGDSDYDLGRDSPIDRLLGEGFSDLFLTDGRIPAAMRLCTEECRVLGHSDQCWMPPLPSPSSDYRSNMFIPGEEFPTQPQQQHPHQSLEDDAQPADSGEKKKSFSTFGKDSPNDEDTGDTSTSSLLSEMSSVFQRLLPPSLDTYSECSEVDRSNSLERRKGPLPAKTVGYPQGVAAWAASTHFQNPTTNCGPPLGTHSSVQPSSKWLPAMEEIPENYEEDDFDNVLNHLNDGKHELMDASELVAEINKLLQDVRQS
UniProt Q9H832: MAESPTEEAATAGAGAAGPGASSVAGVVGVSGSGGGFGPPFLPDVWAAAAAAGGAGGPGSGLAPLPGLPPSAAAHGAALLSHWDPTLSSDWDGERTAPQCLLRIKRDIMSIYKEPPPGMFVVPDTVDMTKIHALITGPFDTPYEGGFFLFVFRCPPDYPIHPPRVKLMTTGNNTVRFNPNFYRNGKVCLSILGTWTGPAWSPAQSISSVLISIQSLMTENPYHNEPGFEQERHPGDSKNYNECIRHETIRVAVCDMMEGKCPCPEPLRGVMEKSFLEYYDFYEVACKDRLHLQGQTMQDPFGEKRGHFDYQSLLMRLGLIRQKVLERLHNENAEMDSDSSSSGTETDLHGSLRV
UniProt Q7RTU4: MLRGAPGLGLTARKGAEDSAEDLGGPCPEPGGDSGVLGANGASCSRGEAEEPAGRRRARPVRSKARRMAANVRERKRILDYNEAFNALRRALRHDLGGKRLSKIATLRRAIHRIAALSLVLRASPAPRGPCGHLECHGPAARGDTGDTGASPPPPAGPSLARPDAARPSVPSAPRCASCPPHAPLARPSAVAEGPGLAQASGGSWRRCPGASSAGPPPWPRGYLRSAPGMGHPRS
UniProt Q03111: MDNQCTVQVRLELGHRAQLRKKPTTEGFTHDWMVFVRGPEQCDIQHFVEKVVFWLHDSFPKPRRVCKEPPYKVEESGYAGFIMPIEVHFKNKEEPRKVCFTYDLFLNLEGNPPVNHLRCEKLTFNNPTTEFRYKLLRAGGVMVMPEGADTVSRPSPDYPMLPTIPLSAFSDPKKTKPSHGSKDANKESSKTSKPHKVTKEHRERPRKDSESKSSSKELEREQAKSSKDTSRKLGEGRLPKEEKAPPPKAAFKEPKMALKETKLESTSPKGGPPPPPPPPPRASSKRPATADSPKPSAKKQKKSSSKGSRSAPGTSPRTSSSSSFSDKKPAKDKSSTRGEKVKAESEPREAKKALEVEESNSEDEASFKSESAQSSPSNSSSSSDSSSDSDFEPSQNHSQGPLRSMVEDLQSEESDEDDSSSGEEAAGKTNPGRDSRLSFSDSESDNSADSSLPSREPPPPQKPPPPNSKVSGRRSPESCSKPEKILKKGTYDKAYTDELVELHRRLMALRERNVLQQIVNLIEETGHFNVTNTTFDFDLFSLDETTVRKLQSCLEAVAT
UniProt Q5SW79: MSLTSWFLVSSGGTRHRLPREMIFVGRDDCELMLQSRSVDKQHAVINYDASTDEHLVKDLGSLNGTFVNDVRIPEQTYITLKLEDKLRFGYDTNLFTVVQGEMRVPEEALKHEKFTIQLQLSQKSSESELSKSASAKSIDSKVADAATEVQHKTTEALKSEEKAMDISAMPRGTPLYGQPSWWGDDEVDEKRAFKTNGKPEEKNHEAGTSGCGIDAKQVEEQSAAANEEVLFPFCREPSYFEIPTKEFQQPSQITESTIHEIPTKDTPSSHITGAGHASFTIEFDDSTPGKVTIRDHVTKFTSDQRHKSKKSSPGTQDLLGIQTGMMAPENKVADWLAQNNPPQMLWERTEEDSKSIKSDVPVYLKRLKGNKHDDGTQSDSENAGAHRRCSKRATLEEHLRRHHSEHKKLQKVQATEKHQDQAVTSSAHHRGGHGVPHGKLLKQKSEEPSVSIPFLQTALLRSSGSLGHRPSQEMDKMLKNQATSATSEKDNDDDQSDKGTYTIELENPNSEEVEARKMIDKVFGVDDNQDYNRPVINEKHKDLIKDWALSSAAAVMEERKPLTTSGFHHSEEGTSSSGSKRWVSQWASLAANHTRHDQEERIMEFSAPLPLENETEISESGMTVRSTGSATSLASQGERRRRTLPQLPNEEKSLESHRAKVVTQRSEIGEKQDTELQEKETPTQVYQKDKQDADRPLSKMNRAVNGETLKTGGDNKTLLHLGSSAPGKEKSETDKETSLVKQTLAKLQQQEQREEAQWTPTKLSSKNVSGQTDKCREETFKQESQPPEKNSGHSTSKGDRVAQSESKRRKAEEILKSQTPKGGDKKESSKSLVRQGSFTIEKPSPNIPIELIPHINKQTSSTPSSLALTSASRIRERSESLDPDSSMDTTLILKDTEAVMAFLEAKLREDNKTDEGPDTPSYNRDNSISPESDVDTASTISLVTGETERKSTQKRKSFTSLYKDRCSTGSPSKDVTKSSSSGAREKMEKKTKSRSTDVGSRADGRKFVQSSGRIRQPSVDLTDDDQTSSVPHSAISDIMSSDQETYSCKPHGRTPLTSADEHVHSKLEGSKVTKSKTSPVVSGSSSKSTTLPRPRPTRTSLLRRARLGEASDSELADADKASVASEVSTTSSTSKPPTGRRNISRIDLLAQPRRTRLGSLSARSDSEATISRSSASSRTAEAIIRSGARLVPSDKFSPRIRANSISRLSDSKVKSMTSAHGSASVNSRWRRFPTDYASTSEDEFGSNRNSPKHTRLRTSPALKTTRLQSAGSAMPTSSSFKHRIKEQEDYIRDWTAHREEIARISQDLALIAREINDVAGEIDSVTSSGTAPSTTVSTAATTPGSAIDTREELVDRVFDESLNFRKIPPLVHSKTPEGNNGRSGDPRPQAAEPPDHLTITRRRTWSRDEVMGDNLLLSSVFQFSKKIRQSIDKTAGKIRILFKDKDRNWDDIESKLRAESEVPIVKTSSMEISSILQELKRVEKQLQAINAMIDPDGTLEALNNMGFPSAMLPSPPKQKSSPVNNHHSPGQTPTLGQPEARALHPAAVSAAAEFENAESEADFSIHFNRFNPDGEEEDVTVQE
UniProt Q8NEC7: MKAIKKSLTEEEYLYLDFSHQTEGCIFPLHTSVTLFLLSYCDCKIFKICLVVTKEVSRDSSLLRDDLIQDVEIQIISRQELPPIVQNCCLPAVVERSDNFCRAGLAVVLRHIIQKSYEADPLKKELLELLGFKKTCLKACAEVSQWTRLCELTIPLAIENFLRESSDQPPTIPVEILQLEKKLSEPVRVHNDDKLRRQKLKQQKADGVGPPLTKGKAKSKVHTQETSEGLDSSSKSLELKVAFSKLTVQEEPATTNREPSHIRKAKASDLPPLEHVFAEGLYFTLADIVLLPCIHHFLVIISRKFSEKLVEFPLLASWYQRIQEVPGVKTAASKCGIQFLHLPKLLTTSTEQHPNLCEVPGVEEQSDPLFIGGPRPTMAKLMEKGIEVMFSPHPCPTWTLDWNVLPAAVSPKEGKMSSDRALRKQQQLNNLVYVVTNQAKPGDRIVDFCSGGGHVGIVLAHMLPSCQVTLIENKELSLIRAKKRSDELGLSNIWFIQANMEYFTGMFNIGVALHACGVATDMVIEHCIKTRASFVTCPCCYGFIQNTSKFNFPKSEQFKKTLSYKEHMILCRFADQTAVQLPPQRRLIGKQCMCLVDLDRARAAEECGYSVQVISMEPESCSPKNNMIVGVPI
UniProt O95479: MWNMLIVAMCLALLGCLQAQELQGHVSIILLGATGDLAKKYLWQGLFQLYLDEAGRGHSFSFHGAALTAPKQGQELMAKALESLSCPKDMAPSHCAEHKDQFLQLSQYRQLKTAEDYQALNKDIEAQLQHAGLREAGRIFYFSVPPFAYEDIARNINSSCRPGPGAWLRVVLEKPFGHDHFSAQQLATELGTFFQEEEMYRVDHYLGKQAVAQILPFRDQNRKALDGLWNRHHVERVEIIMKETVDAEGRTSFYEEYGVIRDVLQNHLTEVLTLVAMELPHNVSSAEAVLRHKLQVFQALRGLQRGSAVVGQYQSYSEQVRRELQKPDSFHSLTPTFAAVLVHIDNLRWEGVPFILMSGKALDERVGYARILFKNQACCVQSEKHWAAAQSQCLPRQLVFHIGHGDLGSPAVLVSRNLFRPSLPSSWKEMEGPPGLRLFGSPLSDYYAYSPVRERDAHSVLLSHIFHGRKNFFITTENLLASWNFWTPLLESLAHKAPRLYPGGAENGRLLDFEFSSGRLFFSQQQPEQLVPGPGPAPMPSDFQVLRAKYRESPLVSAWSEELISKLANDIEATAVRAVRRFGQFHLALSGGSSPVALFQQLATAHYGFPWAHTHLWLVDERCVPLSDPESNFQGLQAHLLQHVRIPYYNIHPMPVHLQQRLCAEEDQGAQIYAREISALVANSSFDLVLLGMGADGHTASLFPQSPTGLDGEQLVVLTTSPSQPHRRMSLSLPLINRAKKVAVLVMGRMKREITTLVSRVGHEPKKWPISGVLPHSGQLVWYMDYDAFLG
UniProt Q86UX7, whole entry: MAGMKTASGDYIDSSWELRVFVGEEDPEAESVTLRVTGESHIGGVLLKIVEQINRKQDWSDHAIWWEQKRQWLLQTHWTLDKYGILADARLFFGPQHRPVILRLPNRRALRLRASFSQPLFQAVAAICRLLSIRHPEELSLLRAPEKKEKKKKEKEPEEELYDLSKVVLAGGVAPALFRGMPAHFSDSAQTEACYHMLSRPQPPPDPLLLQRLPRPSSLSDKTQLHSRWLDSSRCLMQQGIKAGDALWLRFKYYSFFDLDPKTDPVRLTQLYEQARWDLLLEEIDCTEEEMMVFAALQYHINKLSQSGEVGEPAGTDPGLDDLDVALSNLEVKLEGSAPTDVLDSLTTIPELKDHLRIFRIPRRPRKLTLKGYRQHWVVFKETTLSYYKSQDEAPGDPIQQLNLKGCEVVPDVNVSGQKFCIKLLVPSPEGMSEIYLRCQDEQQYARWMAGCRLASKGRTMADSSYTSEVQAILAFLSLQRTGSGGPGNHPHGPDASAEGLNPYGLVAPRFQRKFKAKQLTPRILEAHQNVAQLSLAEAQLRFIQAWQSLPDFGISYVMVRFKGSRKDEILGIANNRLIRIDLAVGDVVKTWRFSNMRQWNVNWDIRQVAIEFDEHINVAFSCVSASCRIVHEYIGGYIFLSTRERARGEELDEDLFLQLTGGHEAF

[1] abbreviates: system: DAOY cell lysate, treatment time: 20 min, 4 °C.
The mark [2] stands for this setting: system: intact DAOY cells, treatment time: 90 min, 37 °C.

Repeats are few or missing, and single values can be far off.

Turning to ZBTB8OS (UniProt Q8IWT0), the melting temperature shift was -0.759 °C under setting [1] and -0.38 °C under setting [2].

On to EWSR1 (UniProt Q01844), for which the melting temperature shift under setting [1] is -1.17 °C.

With UniProt Q9BQ51, under setting [2], the melting temperature shift was -1.19 °C. Regarding ATP5D (UniProt P30049), the melting temperature shift by setting is: under setting [1], 2.46 °C; under setting [2], -3.09 °C.

UniProt Q8TC71: the melting temperature shift under setting [2] was found to be 0.748 °C. In the case of MRPS23 (UniProt Q9Y3D9), the melting temperature shift under setting [1] is -0.191 °C and the melting temperature shift under setting [2] was -0.43 °C. In the case of UniProt P11215, the melting temperature shift under setting [2] is -1.48 °C. The same measure, in the same setting: the value for UniProt A6PVI3 was 1.35 °C. In the case of KIF5B (UniProt P33176), the melting temperature shift is -0.13 °C under setting [1] and -0.465 °C under setting [2].

For the target UniProt Q13308, the melting temperature shift under setting [1] came out at 1.05 °C and the melting temperature shift under setting [2] worked out at 0.5 °C.

With SIRT5 (UniProt Q9NXA8), the melting temperature shift was 0.59 °C under setting [1] and 1.22 °C under setting [2]. The like results for SPCS2 (UniProt Q15005) were, in that order, 1.61 °C and -1.12 °C. The like results for TKFC (UniProt Q3LXA3) were, in that order, -0.665 °C and -1.28 °C. Regarding UniProt Q9HCL0, the melting temperature shift under setting [2] is -0.309 °C. Regarding UBE2Z (UniProt Q9H832), the melting temperature shift is 0.0634 °C under setting [1] and -0.825 °C under setting [2].

In the case of UniProt Q86U86, under setting [1], the melting temperature shift is -0.268 °C. UniProt P26022: the melting temperature shift was 0.774 °C under setting [1] and 1 °C under setting [2].

UniProt O15254: the melting temperature shift under setting [2] came to 1.24 °C. Same read-out and setting: the value for UniProt Q9UP52 was 2.71 °C.

With UniProt A6NGH7, the melting temperature shift under setting [2] is -2.34 °C. Take UniProt Q7RTU4: under setting [1], the melting temperature shift is -0.471 °C. Take MID1 (UniProt O15344): the melting temperature shift under setting [1] was -2.18 °C and the melting temperature shift under setting [2] worked out at 0.399 °C.

In the case of TMEM109 (UniProt Q9BVC6), the melting temperature shift under setting [1] amounted to 3.6 °C. Consider UniProt O95319, for which the melting temperature shift under setting [2] was -0.781 °C. For the target MLLT1 (UniProt Q03111), the melting temperature shift worked out at 1.21 °C under setting [1] and 1.73 °C under setting [2]. With ESF1 (UniProt Q9H501), the melting temperature shift under setting [1] worked out at 0.596 °C. Still for that read-out and setting: the same measure for CD58 (UniProt P19256): -0.207 °C. Consider MIOS (UniProt Q9NXC5), for which the melting temperature shift runs as follows: under setting [1], 0.141 °C; under setting [2], 0.309 °C. In the case of SMARCC1 (UniProt Q92922), the melting temperature shift under setting [1] was 0.229 °C and the melting temperature shift under setting [2] was -0.793 °C. The like results for CLGN (UniProt O14967) were, in that order, 2.59 °C and 0.41 °C. With ENOPH1 (UniProt Q9UHY7), the melting temperature shift under setting [1] is 0.0793 °C. Take UniProt P84243: the melting temperature shift under setting [2] came to 0.637 °C. For the target UniProt O94885, the melting temperature shift under setting [1] is -5.53 °C. As for CEP170 (UniProt Q5SW79), the melting temperature shift reads like this: under setting [1], -0.468 °C; under setting [2], -0.123 °C. On the same counts, the results for ERGIC1 (UniProt Q969X5) are 1.11 °C and -0.781 °C. The like results for HSP90AB4P (UniProt Q58FF6) were, in that order, -2.05 °C and 0.257 °C. The like results for SACM1L (UniProt Q9NTJ5) were, in that order, 0.151 °C and 0.141 °C. For TXNRD2 (UniProt Q9NNW7), the melting temperature shift reads like this: under setting [1], 0.671 °C; under setting [2], 7.41 °C. In the case of NSMAF (UniProt Q92636), the melting temperature shift under setting [1] stood at 0.0856 °C. Regarding AFTPH (UniProt Q6ULP2), the melting temperature shift is, setting by setting: under setting [1], 2.19 °C; under setting [2], -0.033 °C. On the same counts, the results for DCP1A (UniProt Q9NPI6) are -1.43 °C and 1.55 °C.

As for FAM117B (UniProt Q6P1L5), under setting [2], the melting temperature shift was 3.42 °C. Turning to ACAP2 (UniProt Q15057), the melting temperature shift is 0.524 °C under setting [1] and -0.812 °C under setting [2]. The like results for ATP6AP2 (UniProt O75787) were, in that order, 0.655 °C and -0.338 °C. For the target ARL2 (UniProt P36404), the melting temperature shift reads like this: under setting [1], -0.23 °C; under setting [2], -1.98 °C. Regarding MAVS (UniProt Q7Z434), the melting temperature shift under setting [1] was determined as 1.33 °C and the melting temperature shift under setting [2] was determined as 0.607 °C. For UniProt Q96HU8, under setting [2], the melting temperature shift is -2.84 °C. With NEK9 (UniProt Q8TD19), the melting temperature shift reads like this: under setting [1], -0.357 °C; under setting [2], -0.87 °C.

With EIF3C (UniProt Q99613), the melting temperature shift is -0.046 °C under setting [1] and -0.14 °C under setting [2].

As to YRDC (UniProt Q86U90), the melting temperature shift was -0.463 °C under setting [1] and 0.0187 °C under setting [2]. For the target SCCPDH (UniProt Q8NBX0), the melting temperature shift was 1.62 °C under setting [1] and -1.59 °C under setting [2]. Regarding TFDP1 (UniProt Q14186), the melting temperature shift under setting [2] is -3.69 °C. In the case of UniProt Q9HBM6, the melting temperature shift under setting [2] is -1.4 °C. The same measure, in the same setting: the value for NARS2 (UniProt Q96I59) was -2.48 °C.

On to PAK1IP1 (UniProt Q9NWT1), for which the melting temperature shift under setting [1] was -0.397 °C and the melting temperature shift under setting [2] was found to be 0.465 °C. For NDUFB3 (UniProt O43676), the melting temperature shift is 2.14 °C under setting [1] and -0.378 °C under setting [2]. On to GSTCD (UniProt Q8NEC7), for which the melting temperature shift by setting is: under setting [1], -2.9 °C; under setting [2], 3 °C. The like results for H6PD (UniProt O95479) were, in that order, 1.6 °C and 0.92 °C. Take UniProt Q86UX7: the melting temperature shift under setting [1] is -1.18 °C. In the case of UBXN4 (UniProt Q92575), the melting temperature shift was 1.26 °C under setting [1] and -0.779 °C under setting [2]. On the same counts, the results for CHMP1A (UniProt Q9HD42) are -2.77 °C and 0.252 °C. On the same counts, the results for PIGG (UniProt Q5H8A4) are 0.44 °C and -0.747 °C. Regarding DYNC2LI1 (UniProt Q8TCX1), the melting temperature shift under setting [1] was -1.42 °C. For the target UniProt Q14409, under setting [2], the melting temperature shift is -1.14 °C.

As to UniProt Q12840, the melting temperature shift under setting [1] is -3.2 °C. On to FBXO28 (UniProt Q9NVF7), for which the melting temperature shift under setting [1] worked out at 0.0555 °C. On the same count and under the same terms, the value for CISD1 (UniProt Q9NZ45) was 1.7 °C; that for PNPLA6 (UniProt Q8IY17) was 1.69 °C. Regarding UniProt P20336, the melting temperature shift under setting [2] is -1.33 °C. In the case of UniProt Q15048, the melting temperature shift under setting [1] is -2.16 °C. In the case of IRF2BPL (UniProt Q9H1B7), the melting temperature shift reads like this: under setting [1], -1.46 °C; under setting [2], -1.88 °C. The like results for SMG8 (UniProt Q8ND04) were, in that order, -1.5 °C and 0.858 °C.

Source of the values: the supplement of paper PMC10060354, “Discovery of a small molecule ligand of FRS2 that inhibits invasion and tumor growth” (Cellular Oncology, 2022).
